PubChem BioAssay AID1487 (National Center for Advancing Translational Sciences (NCATS), 2009)
The other results are listed elsewhere or left out. The main result of the screen is listed elsewhere. These columns were measured beside it and carry no call. The list favours compounds with an active or inconclusive main result. Potencies come from curve fits of mixed quality, noted in brackets.

Assay: qHTS Assay for Modulators of Lamin A Splicing
Details: HeLa LMNA splicing GFP/RFP minigene ratio, 48 h
Procedure, shortened: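 S3 HeLa stable clones carrying a lamin A-EGFP splicing minigene plus DsRed2 were seeded at 600 cells/well in Opti-MEM with 2% FBS, pin-dosed and incubated 48 h at 37°C. Acumen cytometry (488 nm) gave the GFP/RFP total-intensity ratio.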

[1] = measured here: RFP viability control channel
[2] = measured here: GFP splicing reporter channel

c1ccc(C[n+]2c(-c3ccccc3)csc2Nc2ccccc2)cc1
AC50 [1]: 35.5 µM [rising, single point]

Fc1ccccc1/C=N/n1cnnc1
AC50 [2]: 5.01 µM [falling, single point]
AC50 [1]: 5.01 µM [falling, partial curve]

Cc1cc2c(cc1C)CSC(c1ccccc1OC(=O)C(C)(C)C)SC2
AC50 [1]: 17.8 µM [rising, single point]

CCS(=O)(=O)N1CCN(C(=O)c2ccc(-c3ccccc3)cc2)CC1
AC50 [2]: 12.6 µM [rising, single point]
AC50 [1]: 17.8 µM [rising, partial curve]

COc1ccc(C2CC(c3cccs3)=NN2C(=O)CSc2nncs2)cc1OC (configuration not stated)
AC50 [1]: 5.62 µM [falling, single point]

COc1ccc(-c2nc3scc(CCNS(=O)(=O)c4ccc(F)cc4C)n3n2)cc1
AC50 [1]: 0.0141 µM [falling, full curve, poor fit]

Cc1ccccc1N1CCN(C(=O)c2ccc(Oc3ccc(C(F)(F)F)cn3)cc2)CC1
AC50 [1]: 20 µM [rising, single point]

CCOC(=O)Cc1csc(NC(=O)CCc2ccc(S(=O)(=O)N3CCOCC3)cc2)n1
AC50 [2]: 17.8 µM [rising, partial curve, poor fit]
AC50 [1]: 25.1 µM [rising, single point]

Cc1nc(NC(=O)CSc2nnc(-c3ccccc3)c(-c3ccccc3)n2)c(Cl)cc1Cl
AC50 [1]: 15.8 µM [rising, single point]

COc1ccc(NC(=S)N/N=C2\CC(C)(C)Oc3ccc(O)cc32)cc1
AC50 [1]: 5.62 µM [rising, partial curve, poor fit]

Cc1ccc(-c2ccc(=O)n(CCC(=O)NCCc3ccccc3)n2)cc1
AC50 [2]: 3.98 µM [falling, single point]

Cc1ccc(S(=O)(=O)/C(C#N)=C/c2c[nH]c3ccccc23)cc1
AC50 [2]: 35.5 µM [rising, single point]
AC50 [1]: 35.5 µM [rising, single point]

O=C1C(Nc2ccccc2)=C/C(=N/S(=O)(=O)c2cccs2)c2ccccc21
AC50 [2]: 3.98 µM [falling, full curve]
AC50 [1]: 5.01 µM [falling, full curve]

CCCCC(NS(=O)(=O)c1ccc(C)cc1)C(=O)Oc1ccc2c3c(c(=O)oc2c1)CCC3 (configuration not stated)
AC50 [1]: 12.6 µM [rising, partial curve]

COc1ccc2c(c1)sc(N)[n+]2Cc1cc(C)cc2cccnc12
AC50 [1]: 2.51 µM [rising, partial curve]

O=C(O)[C@H]1C(=CCO)O[C@H]2CC(=O)N12
AC50 [2]: 0.0355 µM [falling, full curve, poor fit]
AC50 [1]: 0.0398 µM [falling, full curve, poor fit]

Cc1nc2c([nH]c3ccc(Br)cc32)s1
AC50 [2]: 20 µM [rising, partial curve]

O=C(/C=C/c1c[nH]c2ccccc12)c1cccc2ccccc12
AC50 [2]: 8.91 µM [falling, partial curve, poor fit]
AC50 [1]: 22.4 µM [falling, partial curve]

CCCc1nn2c(=O)cc(COC(=O)c3ccc(NC(=O)COc4ccccc4)cc3)nc2s1
AC50 [1]: 0.0316 µM [falling, full curve, poor fit]

CCc1cccc2c(C(=O)C(F)(F)F)cn(CC(=O)N3CCOCC3)c12
AC50 [1]: 0.0178 µM [rising, full curve, poor fit]

COc1ccc(CNC(=O)COC(=O)CCOc2ccccc2)cc1
AC50 [2]: 6.31 µM [rising, single point]
AC50 [1]: 5.01 µM [rising, single point]

O=C(N/N=C\c1ccc(-c2ccc([N+](=O)[O-])cc2)o1)C1COc2ccccc2O1 (configuration not stated)
AC50 [1]: 35.5 µM [rising, single point]

CCC1CCCCN1c1nc2c(C=O)c(C)nn2c2ccccc12 (configuration not stated)
AC50 [1]: 7.08 µM [rising, partial curve, poor fit]

O=C(Cc1ccccc1F)Nc1nc2ccccc2[nH]1
AC50 [1]: 0.158 µM [rising, full curve, poor fit]

C[C@@H](C(=O)Nc1ccc2ccccc2c1)[C@H]1C[C@]1(C)[C@H](NC(=O)c1cccnc1)c1ccccc1
AC50 [1]: 14.1 µM [rising, partial curve]

Cc1nonc1C1CCCN1Cc1nc(-c2ccccc2Cl)oc1C (configuration not stated)
AC50 [2]: 35.5 µM [falling, partial curve, poor fit]
AC50 [1]: 35.5 µM [falling, partial curve]

Clc1ccc(-n2ncc3c(NCc4cccs4)ncnc32)cc1
AC50 [1]: 11.2 µM [rising, partial curve]

Cc1nc2cncnc2n(Cc2ccccc2)c1=O
AC50 [1]: 10 µM [rising, partial curve]

Clc1cccc(CN2CCC(Cc3ccccc3)CC2)c1
AC50 [2]: 12.6 µM [rising, partial curve, poor fit]

COc1cccc(CNc2cc(CSc3ccc(Cl)cc3)nc(C)n2)c1
AC50 [2]: 12.6 µM [rising, single point]
AC50 [1]: 12.6 µM [rising, single point]

Cn1cccc1C(=O)OCC(=O)Nc1ccc2c(c1)CCC2
AC50 [2]: 1.58 µM [rising, partial curve, poor fit]

CCOC(=O)C1=c2/c(=C/c3ccncc3)c(N)c(C(=O)OC)n2C(=O)C(c2ccncc2)S1 (configuration not stated)
AC50 [2]: 0.0891 µM [falling, full curve, poor fit]

Cn1c(/C=N/NC(=O)c2ccccc2)nc2ccccc21
AC50 [2]: 10 µM [falling, partial curve]

CCOC(=O)c1cnc(-n2nc(C)cc2C)nc1N(CC)CC
AC50 [1]: 12.6 µM [rising, single point]

Cc1cc(C)n2c(Br)c(CN3CCCC(C)C3)nc2n1 (configuration not stated)
AC50 [2]: 0.00891 µM [falling, full curve, poor fit]

CCOC(=O)c1cnc2ccc(OCC)cc2c1NCc1ccccc1OC
AC50 [1]: 1 µM [rising, full curve, poor fit]

COc1cc(CNC(=O)c2cnc3c(-c4cccc(C)c4)c(C)nn3c2C)cc(OC)c1OC
AC50 [2]: 5.01 µM [rising, partial curve, poor fit]
